# The list shows a part of the results.
# B1: SspB A3vp1 (Streptococcus gordonii), Q54186 (protein)
# chain: MTNEADYQAKLAAYQTELARVQKANADAKATYEKAVEDNKAKNAAIKAENEEIKQRNAVAKTDYEAKLAKYEADLAKYKKEFAAYTAALAEAESKKKQDGYLSEPRSQSLNFKSEPNAIRTIDSSVHQYGQQELDALVKSWGISPTNPDRKKSRAYSYFNAINSNNTYAKLVLEKDKPVDVTYTGLKNSSFNGKKISKVVYTYTLKETGFNDGTKMTMFASSDPTVTAWYNDYFTSTNINVKVKFYDEEGQLMNLTGGLVNFSSLNRGNGSGAIDKDAIESVRNFNGRYIPISGSSIKIHENNSAYADSSNAEKSLGARWNTSEWDTTSSPNNWYGAIVGEITQSEISFNMASSKSGNIWFAFNSNINAIGVPTKPVAPTAPTQPMYETEKPLEPAPVAPSYENEPTPPVKTPDQPEPSKPAAALEHHHHHH
# What was measured:
# Test in all cases: glycan array binding signal (z-score within array); higher = stronger binding
# Conditions in all cases: glycan notation: IUPAC condensed, linker removed
# [1] = molecular target: Gal(b1-4)GlcNAc(b1-2)Man(a1-6)[Man(a1-3)]Man(b1-4)GlcNAc(b1-4)GlcNAc
# Summary of the method: (§1)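 Columns mapping to the same glycan were averaged after glycan names were converted to IUPAC-condensed notation. The data come from 3228 arrays in the Consortium for Functional Glycomics database, limited to those with an available protein sequence. Binding is reported as a within-array Z-score averaged across arrays of one protein sequence and across linkers.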
# [2] = molecular target: Gal(b1-4)GlcNAc(b1-2)[Gal(b1-4)GlcNAc(b1-4)]Man(a1-3)[Gal(b1-4)GlcNAc(b1-2)Man(a1-6)]Man(b1-4)GlcNAc(b1-4)GlcNAc
# Summary of the method: as §1
# [3] = molecular target: Gal(b1-4)GlcNAc(b1-2)[Gal(b1-4)GlcNAc(b1-4)]Man(a1-3)[Gal(b1-4)GlcNAc(b1-2)[Gal(b1-4)GlcNAc(b1-6)]Man(a1-6)]Man(b1-4)GlcNAc(b1-4)GlcNAc
# Summary of the method: as §1
# [4] = molecular target: Gal(b1-4)GlcNAc(b1-2)[Gal(b1-4)GlcNAc(b1-4)]Man(a1-3)[GlcNAc(b1-4)][Gal(b1-4)GlcNAc(b1-2)Man(a1-6)]Man(b1-4)GlcNAc(b1-4)GlcNAc
# Summary of the method: as §1
# [5] = molecular target: Gal(b1-4)GlcNAc(b1-2)[Gal(b1-4)GlcNAc(b1-4)]Man(a1-3)[GlcNAc(b1-4)][Gal(b1-4)GlcNAc(b1-2)[Gal(b1-4)GlcNAc(b1-6)]Man(a1-6)]Man(b1-4)GlcNAc(b1-4)GlcNAc
# Summary of the method: as §1
# [6] = molecular target: Gal(b1-4)GlcNAc(b1-2)[Gal(b1-4)GlcNAc(b1-6)]Man(a1-6)[Gal(b1-4)GlcNAc(b1-2)Man(a1-3)]Man(b1-4)GlcNAc(b1-4)GlcNAc
# Summary of the method: as §1
# [7] = molecular target: Gal(b1-4)GlcNAc(b1-2)[Gal(b1-4)GlcNAc(b1-6)]Man(a1-6)[Gal(b1-4)GlcNAc(b1-2)Man(a1-3)]Man(b1-4)GlcNAc(b1-4)[Fuc(a1-6)]GlcNAc
# Summary of the method: as §1
# [8] = molecular target: Gal(b1-4)GlcNAc(b1-2)[Gal(b1-4)GlcNAc(b1-6)]Man(a1-6)[GlcNAc(b1-4)][Gal(b1-4)GlcNAc(b1-2)Man(a1-3)]Man(b1-4)GlcNAc(b1-4)GlcNAc
# Summary of the method: as §1
# [9] = molecular target: Gal(b1-4)GlcNAc(b1-2)[Gal(b1-4)GlcNAc(b1-6)]Man(a1-6)[GlcNAc(b1-4)][Gal(b1-4)GlcNAc(b1-2)[Gal(b1-4)GlcNAc(b1-4)]Man(a1-3)]Man(b1-4)GlcNAc(b1-4)[Fuc(a1-6)]GlcNAc
# Summary of the method: as §1
# [10] = molecular target: Gal(b1-4)GlcNAc(b1-3)Gal(b1-3)GalNAc
# Summary of the method: as §1
# [11] = molecular target: Gal(b1-4)GlcNAc(b1-3)Gal(b1-3)GlcNAc
# Summary of the method: as §1
# [12] = molecular target: Gal(b1-4)GlcNAc(b1-3)Gal(b1-4)Glc
# Summary of the method: as §1
# [13] = molecular target: Gal(b1-4)GlcNAc(b1-3)Gal(b1-4)GlcNAc
# Summary of the method: as §1
# [14] = molecular target: Gal(b1-4)GlcNAc(b1-3)Gal(b1-4)GlcNAc(b1-2)Man(a1-3)[Gal(b1-4)GlcNAc(b1-3)Gal(b1-4)GlcNAc(b1-2)Man(a1-6)]Man(b1-4)GlcNAc(b1-4)GlcNAc
# Summary of the method: as §1
# [15] = molecular target: Gal(b1-4)GlcNAc(b1-3)Gal(b1-4)GlcNAc(b1-2)Man(a1-3)[Gal(b1-4)GlcNAc(b1-3)Gal(b1-4)GlcNAc(b1-2)Man(a1-6)]Man(b1-4)GlcNAc(b1-4)[Fuc(a1-6)]GlcNAc
# Summary of the method: as §1
# [16] = molecular target: Gal(b1-4)GlcNAc(b1-3)Gal(b1-4)GlcNAc(b1-2)[Gal(b1-4)GlcNAc(b1-3)Gal(b1-4)GlcNAc(b1-6)]Man(a1-6)[Gal(b1-4)GlcNAc(b1-3)Gal(b1-4)GlcNAc(b1-2)Man(a1-3)]Man(b1-4)GlcNAc(b1-4)GlcNAc
# Summary of the method: as §1
# [17] = molecular target: Gal(b1-4)GlcNAc(b1-3)Gal(b1-4)GlcNAc(b1-2)[Gal(b1-4)GlcNAc(b1-3)Gal(b1-4)GlcNAc(b1-6)]Man(a1-6)[Gal(b1-4)GlcNAc(b1-3)Gal(b1-4)GlcNAc(b1-2)Man(a1-3)]Man(b1-4)GlcNAc(b1-4)[Fuc(a1-6)]GlcNAc
# Summary of the method: as §1
# [18] = molecular target: Gal(b1-4)GlcNAc(b1-3)Gal(b1-4)GlcNAc(b1-3)Gal(b1-4)GlcNAc
# Summary of the method: as §1
binder,measurement,setting,value
B1,glycan array binding signal (z-score),[1],0.42
same,glycan array binding signal (z-score),[2],-0.863
same,glycan array binding signal (z-score),[3],0.805
same,glycan array binding signal (z-score),[4],-0.012
same,glycan array binding signal (z-score),[5],1.91
same,glycan array binding signal (z-score),[6],1.82
same,glycan array binding signal (z-score),[7],0.793
same,glycan array binding signal (z-score),[8],0.194
same,glycan array binding signal (z-score),[9],-0.766
same,glycan array binding signal (z-score),[10],0.021
same,glycan array binding signal (z-score),[11],-0.837
same,glycan array binding signal (z-score),[12],-0.159
same,glycan array binding signal (z-score),[13],0.287
same,glycan array binding signal (z-score),[14],1.65
same,glycan array binding signal (z-score),[15],0.965
same,glycan array binding signal (z-score),[16],3.16
same,glycan array binding signal (z-score),[17],3.01
same,glycan array binding signal (z-score),[18],0.261

# Pulled one by one from the list above (two):
binder,measurement,setting,value
B1,glycan array binding signal (z-score),[18],0.261
same,glycan array binding signal (z-score),[10],0.021

# Source: the supplement of paper PMC8728848
